# PMC12670160, “A drug-repurposing screen of FDA- and EMA-approved drugs identifies two NF-κB inhibitors active against eumycetoma” (Journal of Antimicrobial Chemotherapy, 2025)
# Structures can show the parent of a compound that is named as a salt. In all, about 5,300 compounds went through this assay and about 130 (2.5%) showed an effect of 50% or more. The list shows a part of the results. Numbered stars: 1 amine (or outer) side, 2 acyl side, 3 side chain; on linkers, the order of the positions; unused ones are H or OH. Bridge positions count the residues as written; N and C are the ends. Square brackets hold non-standard residues; d marks the D form. Peptide text beside a SMILES is read from it. * marks the point of attachment. X2 = NC1=N[C@@H](O)CC([C@H](N[*:1])C(=O)[*:2])N1; ΔAla(Z-3-ureido) = NC(=O)N/C=C(\N)C(=O)O; β3hOrn = NCCC[C@H](N)CC(=O)*; Dap = NC[C@H](N)C(=O)O
# System: M. mycetomatis strain mm55
# Details: primary screen, metabolic activity vs growth control; 96 h, 2 µM; inhibitor
row,SMILES,% viability [%]
1,"OC[C@H]1O[C@H](O[C@H]2O[C@H](CO)[C@@H](O)[C@H](O)[C@H]2O)[C@H](O)[C@@H](O)[C@@H]1O [ONC0003487, trehalose]",42.59
2,"COc1cccc(-c2cc(F)ccc2[C@H]2Cc3nc(N)nc(C)c3C(=O)N2)n1 [ONC0002239, nvphsp990]",94.43
3,"COc1nc(N)nc2c1ncn2[C@@H]1O[C@H](CO)[C@@H](O)[C@@H]1O [ONC0004500, nelarabine arranon]",60.78
4,"CC(C)S(=O)(=O)NC[C@H](C)c1ccc(-c2ccc(CCNS(C)(=O)=O)cc2)cc1 [ONC0000792, mibampator]",65.07
5,"COc1ccccc1N1CCN(CCCNc2cc(=O)n(C)c(=O)n2C)CC1 [ONC0003152, urapidil hydrochloride]",75.54
6,"CC(C)(O)CS(=O)(=O)Nc1ccc2c(c1)CCN(C(=O)COc1cccnc1)C2 [ONC0000777, namptin1]",80.8
7,"CN/C(=N\c1ccc(C2=NNC(=O)CC2C)cc1)NC#N (stereo not drawn) [ONC0000865, siguazodan]",68.34
8,"C[C@H](CCC(=O)NCCS(=O)(=O)O)[C@H]1CC[C@H]2[C@@H]3[C@@H](O)C[C@@H]4C[C@H](O)CC[C@]4(C)[C@H]3CC[C@]12C [ONC0003514, tauroursodeoxy cholic acid dihydrate]",70.98
9,"c1cn2cc(-c3ccc4cn[nH]c4c3)nc(Nc3ccc(N4CCOCC4)cc3)c2n1 [ONC0005145, entospletinib gs9973]",86.27
10,"O=C(O)c1ccc(N2N=C(Cc3ccccc3)/C(=C\c3ccc(-c4ccccc4F)o3)C2=O)cc1 [ONC0003538, gs143]",106.5
11,"O=C1[C@@H]2[C@H]3CC[C@H](C3)[C@@H]2C(=O)N1CCCCN1CCN(c2ncccn2)CC1 [ONC0001044, tandospirone]",100.2
12,"O=C1NCCN1CCN1CCC(c2cn(-c3ccc(F)cc3)c3ccc(Cl)cc23)CC1 [ONC0002313, sertindole]",104.8
13,"O=C(Nc1ccc(N2CCC(C(=O)N3CCOCC3)CC2)cc1)c1cnc(Oc2ccccc2)nc1 [ONC0003536, tfc007]",114.7
14,"O=C1CCC(N2C(=O)c3ccccc3C2=O)C(=O)N1 (stereo not drawn) [ONC0003095, thalidomide]",66.77
15,"CN[C@@H](CCCNC(=N)N)C(=O)O [ONC0002691, lmonomethylarginine]",94.49
16,"CCCN(CCC)C(=O)C(CCC(=O)OCCCN1CCN(CCOC(=O)Cc2c(C)n(C(=O)c3ccc(Cl)cc3)c3ccc(OC)cc23)CC1)NC(=O)c1ccccc1 (stereo not drawn) [ONC0003297, proglumetacin]",71.67
17,"CC1(C)S[C@@H]2[C@H](NC(=O)Cc3ccccc3)C(=O)N2[C@H]1C(=O)O [ONC0000471, penicillin g potassium]",76.26
18,"CN(C)[C@@H]1C(=O)C(C(N)=O)C(=O)[C@@]2(O)C(=O)C3C(=O)c4c(O)ccc(Cl)c4[C@@H](O)[C@H]3C[C@@H]12 (stereo partly drawn) [ONC0000432, demeclocycline hydrochloride]",77.24
19,"Clc1cccc(SC2CCNCC2)n1 [ONC0001513, anpirtoline]",76.41
20,"CC(C)(CO)CCCCCCC(C)(C)CO [ONC0002138, gemcadiol]",81.24

row,SMILES,% viability [%]
1,"CC(=O)OCC1=C(C(=O)O)N2C(=O)[C@@H](NC(=O)Cc3cccs3)[C@H]2SC1 [ONC0003428, cephalothin]",60.13
2,"Clc1ccc(C(Cn2ccnc2)OCc2csc3c(Cl)cccc23)c(Cl)c1 (stereo not drawn) [ONC0005215, sertaconazole nitrate]",82
3,"COC(=O)c1csc(C(=O)c2c[nH]c3ccccc23)n1 [ONC0000157, ite]",92.52
4,"CCOc1ccc(NC(=O)CC(C)O)cc1 (stereo not drawn) [ONC0005306, bucetin]",90.99
5,"C=CCn1c(=O)c2cnc(Nc3ccc(N4CCN(C)CC4)cc3)nc2n1-c1cccc(C(C)(C)O)n1 [ONC0004872, mk1775]",112.3
6,"Cc1nc2n(c(=O)c1CCN1CCC(c3noc4cc(F)ccc34)CC1)CCCC2O (stereo not drawn) [ONC0004214, paliperidone]",70.62
7,"CCN(CC)CCNC(=O)COc1ccc(OC)cc1 [ONC0000676, mefexamide hydrochloride]",93.51
8,"COc1ccc(-c2nc3ccc(C4=NNC(=O)CC4C)cc3[nH]2)cc1 (stereo not drawn) [ONC0004871, pimobendan vetmedin]",86.97
9,"CC(C)Nc1nc2cc(Cl)c(Cl)cc2n1[C@H]1O[C@@H](CO)[C@H](O)[C@@H]1O [ONC0002109, maribavir]",67.92
10,"CN(CCOc1ccc(C[C@H](Nc2ccccc2C(=O)c2ccccc2)C(=O)O)cc1)c1ccccn1 [ONC0002597, gw1929]",67.67
11,"C[C@H]1[C@H](OC(=O)CCC(=O)O)O[C@@H]2O[C@@]3(C)CC[C@H]4[C@H](C)CC[C@@H]1[C@@]24OO3 [ONC0003919, artesunate]",64.01
12,"O=C(O)CCC(=O)C(=O)O [ONC0003748, 2oxoglutaricacid]",95.08
13,"COc1ccc2[nH]cc(C3=CCNCC3)c2c1 [ONC0001150, ru 24969]",88.9
14,"C[n+]1ccccc1/C=N/O [ONC0004059, pralidoxime mesylate]",102.4
15,CCC(C)n1ncn(-c2ccc(N3CCN(c4ccc(OCC5COC(Cn6cncn6)(c6ccc(Cl)cc6Cl)O5)cc4)CC3)cc2)c1=O (stereo not drawn) [Itraconazole hydrochloride],4.9
16,"Cc1cccc(Nc2ccccc2C(=O)O)c1C [ONC0000695, mefenamic acid]",132.3
17,"CCOc1cc(N)c(Cl)cc1C(=O)NCC1CN(Cc2ccc(F)cc2)CCO1 (stereo not drawn) [ONC0004914, mosapride citrate]",102.1
18,"NC(=O)CN1CC[C@@H](NC(=O)[C@@H]2CCCN2)C1=O [ONC0001897, paopa]",92.79
19,"O/N=C/c1cc[n+](COC[n+]2ccc(/C=N/O)cc2)cc1 [ONC0003820, obidoxime]",65.57
20,"[H]/N=C(/N)N/C(=N/[H])NCCc1ccccc1 [ONC0000619, phenformin hydrochloride]",104.4

row,SMILES,% viability [%]
1,"CC(C)(C(=O)NCC(F)(F)C(F)(F)F)C(=O)N[C@@H]1C(=O)Nc2ccccc2-c2ccccc21 [ONC0000838, ro4929097]",74.79
2,"CCN(CC)CCOc1ccccc1C(=O)CCc1ccccc1 [ONC0003543, etafenone]",110.8
3,"CCOC(=O)c1ncc2[nH]c3ccc(OCc4ccccc4)cc3c2c1COC [ONC0002534, zk93423]",55.97
4,"Cc1cc(C)c(CNC(=O)c2cc(-c3ccc(N4CCN(C)CC4)nc3)cc3c2c(C)cn3C(C)C)c(=O)[nH]1 [ONC0000860, gsk503]",78.28
5,"CNCCCN1c2ccccc2CCc2ccccc21 [ONC0000421, desipramine hydrochloride]",61.2
6,"O=C1c2c(O)cc(O)cc2O[C@H](c2cc(O)c(O)c(O)c2)[C@H]1O [ONC0000951, dihydromyricetin]",59.72
7,"NP(N)(=O)NC(=O)c1ccc(F)cc1 [ONC0003584, flurofamide]",116.4
8,"Cc1ccsc1C(=CCCN1CCC[C@@H](C(=O)O)C1)c1sccc1C [ONC0002021, tiagabinehcl]",76.03
9,Cc1ccc(-c2c(-c3nn(C)c4ncnc(N5CC[C@H](N6CCCCC6)C5)c34)cnn2C)cc1 [pf4981517],79.1
10,"CC[n+]1c(-c2ccccc2)c2cc(N)ccc2c2ccc(N)cc21 [ONC0002749, homidium bromide]",95.42
11,"O=C1OC(CN2CCOCC2)CN1/N=C/c1ccc([N+](=O)[O-])o1 (stereo not drawn) [ONC0004035, furaltadone]",70.86
12,"CCCC(=O)OCOC(=O)C1=C(C)NC(C)=C(C(=O)OC)C1c1cccc(Cl)c1Cl (stereo not drawn) [ONC0004887, clevidipine butyrate]",116
13,"CCN(CC)CCCCN1c2ccccc2Oc2ccc(Cl)cc21 [ONC0003148, 10debc]",124.6
14,"NCCC[C@H](N)CC(=O)N[C@H]1CNC(=O)[C@H]([C@H]2C[C@H](O)NC(N)=N2)NC(=O)/C(=C/NC(N)=O)NC(=O)[C@H](CO)NC(=O)[C@H](CO)NC1=O [ONC0002739, viomycin] (β3hOrn-[Dap]SS[ΔAla(Z-3-ureido)][X2]; lactam 1-C)",97.19
15,"CC12CCC3C(=CCc4cc(O)ccc43)C1CCC2=O (stereo not drawn) [ONC0005444, equilin]",126.8
16,"Nc1nc2c(c(=O)[nH]1)N(C=O)C(CNc1ccc(C(=O)N[C@@H](CCC(=O)O)C(=O)O)cc1)CN2 (stereo partly drawn) [ONC0000399, leucovorin calcium]",60.67
17,"CCCCCCCCCCC(CO)CCCCCCCC (stereo not drawn) [ONC0003687, 2octyldodecan1ol]",64.53
18,"CC(=O)c1ccc2c(c1)[C@H](NC(=O)c1ccc(F)c(Cl)c1)[C@H](O)C(C)(C)O2 [ONC0002408, tonabersat]",91.32
19,"NC(CO)C(=O)NNCc1ccc(O)c(O)c1O (stereo not drawn) [ONC0003257, benserazide hydrochloride]",90.76
20,"Cc1cccc(C(=O)NCN2CCN(c3ccccc3C#N)CC2)c1 [ONC0000842, pd168077]",78.64

# In another format: 2 of the compounds above.
row	SMILES	% viability [%]
11	C[C@H]1[C@H](OC(=O)CCC(=O)O)O[C@@H]2O[C@@]3(C)CC[C@H]4[C@H](C)CC[C@@H]1[C@@]24OO3 [ONC0003919, artesunate]	64.01
12	O=C(O)CCC(=O)C(=O)O [ONC0003748, 2oxoglutaricacid]	95.08
